Experimental data from PubChem BioAssay AID2551 (National Center for Advancing Translational Sciences (NCATS), 2010).
Screen size: about 310,000 compounds; about 17,000 (5.5%) were called active. Inconclusive means that the source gave no clear call. Such entries were picked first, then a sample of the others. The call rests on the fitted dose curve; in most records, active means well fitted inhibition curve with a large enough effect; inconclusive means small, poorly fitted or top-dose-only effect, or effect the other way; inactive means no such curve, though single readings can be large or run the other way. Potencies of inconclusive entries are doubtful fits and often do not repeat.

Chains of the proteins cited; added tags and fusions are not shown. Lines headed by an entry give the natural chain unless they say otherwise; changes in a name come on top.
UniProt P51450: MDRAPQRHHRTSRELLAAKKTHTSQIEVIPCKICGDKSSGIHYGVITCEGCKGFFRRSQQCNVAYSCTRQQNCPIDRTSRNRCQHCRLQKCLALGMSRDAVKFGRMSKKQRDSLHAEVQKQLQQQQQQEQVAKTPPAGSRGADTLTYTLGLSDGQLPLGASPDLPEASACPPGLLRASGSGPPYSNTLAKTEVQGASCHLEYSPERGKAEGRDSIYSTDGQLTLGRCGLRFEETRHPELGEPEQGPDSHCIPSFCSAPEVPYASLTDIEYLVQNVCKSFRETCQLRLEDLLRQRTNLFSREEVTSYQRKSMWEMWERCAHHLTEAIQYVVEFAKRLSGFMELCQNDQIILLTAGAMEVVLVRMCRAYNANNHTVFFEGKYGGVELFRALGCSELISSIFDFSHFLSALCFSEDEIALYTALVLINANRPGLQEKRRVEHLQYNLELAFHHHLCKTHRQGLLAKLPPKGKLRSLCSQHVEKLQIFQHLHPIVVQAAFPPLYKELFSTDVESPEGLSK

target: Nuclear receptor ROR-gamma (Mus musculus) (UniProt P51450); test: qHTS for inhibitors of ROR gamma transcriptional activity; conditions: Drosophila S2 Gal4-RORgamma UAS-luciferase reporter, 20 h; activity change, negative = inhibition: at 53.6 µM (top of the series); further: nearly all actives have a fitted effect of over 60% in size
Procedure, shortened: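 Schneider cells (Drosophila), stable Gal4 DBD–ROR gamma + UAS-luc; 1 hr cmpd preincubation; Cu2+ induction 700 uM final; 20 hr ambient; luminescence.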
On the % scale 0 is the no-effect control and ±100 the full control effect; potency means the concentration at half of the fitted maximal effect.

Row | SMILES | Potency | activity change, negative = inhibition
1 | C=C(C)CNC(=S)N/N=C/c1ccc([N+](=O)[O-])cc1 | active: 1.12 µM | –
2 | FC(F)Oc1ccc(NC(=S)NC23CC4CC(CC(C4)C2)C3)cc1 | active: 0.794 µM | –
3 | CNC(=O)c1ccsc1NC(=O)CS(=O)(=O)c1ccc(Cl)cc1 | – | inactive: 9.45%
4 | Cc1c(O)ccc(/C=N/Nc2ncccc2[N+](=O)[O-])c1O | active: 10 µM | –
5 | O=C(c1cc(COc2ccc(F)cc2Cl)on1)N1CCCCC1c1cccnc1 (stereo not drawn) | inconclusive: 35.5 µM [activator, single point] | –
6 | COc1ccccc1C(=O)Nc1ccc2c(c1)OCCO2 | inconclusive: 35.5 µM [inhibitor, single point] | –
7 | Cc1nsc(Nc2ccc([N+](=O)[O-])cc2)c1C#N | inconclusive: 2.51 µM [activator, full curve, poor fit] | –
8 | Cc1noc(C)c1CSc1ccccc1C(=O)N1CCN(c2ccccc2)CC1 | inconclusive: 35.5 µM [activator, single point] | –
9 | COc1ccccc1N(CC(=O)NCCSc1ccccc1)S(C)(=O)=O | inconclusive: 3.98 µM [activator, single point] | –
10 | CN(CC(=O)Nc1ccc(Cl)cc1)CC(=O)Nc1ccc(F)c(F)c1F | inconclusive: 11.2 µM [activator, single point] | –
11 | CCCc1c(C(=O)N/N=C/c2ccccc2OCc2ccc(F)cc2)nnn1-c1nonc1N | inconclusive: 22.4 µM [inhibitor, single point] | –
12 | Cc1cc(C(=O)N2CCN(Cc3ccccc3)CC2)ccc1[N+](=O)[O-] | inconclusive: 0.112 µM [inhibitor, single point] | –
13 | COc1ccc(C(=O)NC(=S)NNC(=O)c2ccc(O)cc2)cc1[N+](=O)[O-] | inconclusive: 5.01 µM [inhibitor, partial curve] | –
14 | COCCNC(=O)c1cccc(Nc2nc(-c3ccccc3)c3cc(Cl)ccc3n2)c1 | – | inactive: 35.6%
15 | Fc1ccc(-[n+]2nc(Nc3ccccc3)sc2-c2cccc(Cl)c2Cl)cc1 | active: 8.91 µM | –
16 | O=C(O)c1ccc2c(c1)C(=O)N(c1cccc(C(=O)/C=C/c3ccccc3)c1)C2=O | inconclusive: 35.5 µM [inhibitor, single point] | –
17 | O=C(NCc1cccnc1)C1CC(=O)N(C2CCCCC2)C1 (stereo not drawn) | – | inactive: 0.985%
18 | CN1CCN(C(=S)SCC(=O)Nc2nc(-c3ccccc3)c(-c3ccccc3)o2)CC1 | inconclusive: 15.8 µM [inhibitor, single point] | –
19 | CN1CCN(c2nc(-c3ccc(C(C)(C)C)cc3)nc3ccccc23)CC1 | inconclusive: 12.6 µM [inhibitor, single point] | –
20 | Cc1cccc(NC(=O)c2cccc(Cn3cc(Br)c([N+](=O)[O-])n3)c2)c1C | inconclusive: 25.1 µM [activator, single point] | –
21 | COC(=O)c1ccc(CC(=O)c2ccc(O)cc2O)o1 | – | inactive: 0.633%
22 | O=c1[nH]c(CN2CCc3ccccc32)nc2scc(-c3cccs3)c12 | – | inactive: 1.66%
23 | CCc1ccccc1NC(=S)NCc1cccn1C | active: 12.6 µM | –
24 | CCOC(=O)c1nnc(-c2ccccc2)nc1Oc1ccccc1Cl | active: 4.47 µM | –
25 | Cc1cc(C(=O)COC(=O)c2n[nH]c3ccccc23)c(C)n1C | inconclusive: 35.5 µM [inhibitor, single point] | –

Row | SMILES | Potency | activity change, negative = inhibition
26 | C=CCn1c(SCCN2C(=O)c3ccccc3C2=O)nc2scc(-c3ccccc3)c2c1=O | – | inactive: 2%
27 | Cc1ccc2nc(C)cc(N/N=C/c3ccccc3O)c2c1 | active: 5.62 µM | –
28 | Cc1cccc(N2C(=O)/C(=C\c3ccc(C(=O)O)cc3)c3ccccc3C2=O)c1 | – | inactive: -8.15%
29 | CC(Cc1cccs1)NC(=S)Nc1ccc(Cl)cc1 (stereo not drawn) | active: 7.08 µM | –
30 | COc1ccc(C(=O)Nc2ccc(S(=O)(=O)Nc3cc(C)nc(C)n3)cc2)c(OC)c1 | – | inactive: 13.2%
31 | O=C(N/N=C/c1ccc(-c2ccc(Br)cc2)o1)c1ccc2c(c1)OCO2 | active: 3.55 µM | –
32 | CCCCN(CC)Cc1ccc(CNC(=S)Nc2ccc(C)cc2Cl)o1 | active: 15.8 µM | –
33 | Cc1cccc(C)c1OCc1nc2ccccc2c(=O)n1/N=C/c1ccc(OCC(=O)O)cc1 | – | inactive: -7.31%
34 | CCCCN(CC)c1nc(C)nc2c1c(C)c(C)n2-c1c(C)cc(C)cc1C | active: 2.24 µM | –
35 | Cc1ccc2cc(C(c3nnnn3C3CCCC3)N3CCN(c4ccc(F)cc4)CC3)c(=O)[nH]c2c1 (stereo not drawn) | – | inactive: 28.4%
36 | COc1ccc(/C=C/C(=O)NC2CC3CCC2C3)cc1 (stereo not drawn) | – | inactive: 19.4%
37 | O=C(O)c1[nH]c2ccccc2c1C(c1cccc(O)c1)c1c(C(=O)O)[nH]c2ccccc12 | – | inactive: -7.71%
38 | Cc1cc(C)n(CCNC(=O)c2ccc3c(c2)OCO3)n1 | – | inactive: 0.176%
39 | CC(=O)N1CCN(S(=O)(=O)c2cccc(C(=O)Nc3ccc(F)c(F)c3)c2)CC1 | inconclusive: 17.8 µM [activator, single point] | –
40 | O=C(Cc1c[nH]c2ccccc12)Nc1nc2ccccc2[nH]1 | inconclusive: 31.6 µM [inhibitor, single point] | –
41 | Cc1cc(OCC(=O)N2CCN(c3cccc(Cl)c3)CC2)c2c(C)c(C)c(=O)oc2c1 | – | inactive: 17.3%
42 | CCCCN1CC(O)=C(c2nc3ccccc3s2)C1=N | – | inactive: 34.6%
43 | CC1(C)CC(=O)C(C(O)c2ccccc2)C(C)(C)N1 (stereo not drawn) | inconclusive: 35.5 µM [inhibitor, single point] | –
44 | CC(NCc1ccc(S(N)(=O)=O)cc1)C(=O)Nc1ccc([N+](=O)[O-])cc1Cl (stereo not drawn) | – | inactive: 6.73%
45 | Cc1ccc(C2(C)NC(=O)N(CC(=O)Nc3cccnc3Cl)C2=O)cc1 (stereo not drawn) | – | inactive: 18.6%
46 | S=C1Nc2cc(Cl)ccc2Sc2ccccc21 | inconclusive: 0.794 µM [inhibitor, single point] | –
47 | COC(=O)c1c(NC(=O)COc2ccc(Cl)cc2Cl)sc2c1CC(C)(C)NC2(C)C | inconclusive: 28.2 µM [inhibitor, single point] | –
48 | CC(=O)c1cc(F)c(N2CCOCC2)cc1C | inconclusive: 12.6 µM [inhibitor, single point] | –
49 | CCn1c(CC(=O)Nc2ccc(C)cc2)nnc1SCC(=O)NCCc1ccccc1 | inconclusive: 14.1 µM [activator, single point] | –
50 | CCn1c2ccccc2c2cc(NC(=O)CSc3nnc(-c4cccc(OC)c4)n3N)ccc21 | inconclusive: 11.2 µM [activator, partial curve] | –

Copied from the list.
Entry for `CCCCN(CC)c1nc(C)nc2c1c(C)c(C)n2-c1c(C)cc(C)cc1C` under Potency: active: 2.24 µM
Entry for `Cc1ccc2cc(C(c3nnnn3C3CCCC3)N3CCN(c4ccc(F)cc4)CC3)c(=O)[nH]c2c1` (stereo not drawn) under activity change, negative = inhibition: inactive: 28.4%

Arranged by length of the SMILES (largest number first): 3 of the compounds above
Row | SMILES | Potency | activity change, negative = inhibition
37 | O=C(O)c1[nH]c2ccccc2c1C(c1cccc(O)c1)c1c(C(=O)O)[nH]c2ccccc12 | – | inactive: -7.71%
33 | Cc1cccc(C)c1OCc1nc2ccccc2c(=O)n1/N=C/c1ccc(OCC(=O)O)cc1 | – | inactive: -7.31%
28 | Cc1cccc(N2C(=O)/C(=C\c3ccc(C(=O)O)cc3)c3ccccc3C2=O)c1 | – | inactive: -8.15%

Later entries.

Row | SMILES | Potency | activity change, negative = inhibition
51 | COc1ccc(NC(=O)CC2SC(=Nc3ccccc3)NC2=O)cc1 (stereo not drawn) | inconclusive: 31.6 µM [inhibitor, single point] | –
52 | N/C(=N\NC(=O)c1ccccc1Cl)c1cc2ccccc2oc1=O | active: 14.1 µM | –
53 | CCNC(=O)COc1ccc(OCc2ccccc2)cc1 | inconclusive: 6.31 µM [activator, full curve] | –
54 | CN(C)c1ccc(-n2cccc2)cc1 | – | inactive: -43.3%
55 | COC(=O)C1=CN(c2cc(C)cc(C)c2)C=C(C(=O)OC)C1c1ccc(OC)c(O)c1 | – | inactive: 3.14%
56 | Cn1c2c(c(=O)n(C)c1=O)[C@@]1(C(=O)Nc3ccccc31)C(C#N)=C(N)O2 | active: 20 µM | –
57 | CCOC(=O)N1CCN(Cc2nc3cc(NC(=O)CC)ccc3n2CC)CC1 | – | inactive: -9.43%
58 | O=C(CNc1ccccc1)N/N=C/c1ccc2c(c1)OCCO2 | inconclusive: 15.8 µM [activator, single point] | –
59 | CC1C(=O)Nc2ccc(S(=O)(=O)N3CCc4ccccc4C3)cc2NC1=O (stereo not drawn) | inconclusive: 35.5 µM [activator, single point] | –
60 | O=C(Oc1ccc(OC(=O)c2ccco2)c(S(=O)(=O)c2ccc(Cl)cc2)c1)c1ccco1 | inconclusive: 12.6 µM [activator, single point] | –
61 | COc1ccc(C(=O)N2CCC3(CCCN(C(c4ccccc4)c4ccccc4)C3)CC2)cc1 | inconclusive: 12.6 µM [activator, partial curve] | –
62 | O=C(NC1CCCCC1)c1ccc(-c2cccc([N+](=O)[O-])c2)o1 | inconclusive: 20 µM [inhibitor, single point] | –
63 | CC(C)c1cc(C(=O)NNC(=S)NCc2ccco2)c(O)c(C(C)C)c1 | active: 12.6 µM | –
64 | CC12CC(NC(=O)N1c1ccc(C(=O)N3CCN(c4ccc(F)cc4)CC3)cc1)c1ccccc1O2 (stereo not drawn) | inconclusive: 14.1 µM [activator, single point] | –
65 | Cc1cccc(OCCNC(=O)c2cccc(Oc3ccc(C(F)(F)F)cc3[N+](=O)[O-])c2)c1 | inconclusive: 15.8 µM [activator, single point] | –
66 | CC(=O)N1CCc2cc(S(=O)(=O)N3CCc4ccccc43)ccc21 | inconclusive: 3.55 µM [activator, full curve] | –
67 | Cc1ccc(Cl)cc1N1CCN(C(=O)CCS(=O)(=O)c2cccc3nonc23)CC1 | inconclusive: 15.8 µM [activator, single point] | –
68 | CCCCOc1cc(C(=O)OCCN(CC)CC)ccc1N | – | inactive: 3.65% [at 2.98 µM]
69 | Cc1cccc(CCN(C(=O)c2snc(C(N)=O)c2N)C(C(=O)NCC2CCCO2)c2ccc(F)cc2)c1 (stereo not drawn) | inconclusive: 31.6 µM [activator, single point] | –
70 | O=C(NCCO)c1ccc(CSc2nc3ccccc3[nH]2)cc1 | inconclusive: 6.31 µM [activator, partial curve] | –
71 | COc1ccc(Cl)c(Cn2c(NCC(C)O)nc3c2c(=O)n(C)c(=O)n3C)c1 (stereo not drawn) | inconclusive: 11.2 µM [activator, partial curve, poor fit] | –
72 | O=C(Cc1ccccc1[N+](=O)[O-])N1CCN(c2ccccc2F)CC1 | inconclusive: 35.5 µM [activator, single point] | –
73 | COCCCNC(=O)CCC(=O)NNc1nc2ccccc2c2nc(-c3ccccc3)nn12 | inconclusive: 20 µM [activator, single point] | –
